# Screening data, single-dose tests

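Whole-cell growth test on Mycobacterium tuberculosis, read after 3 days in glucose-containing 7H9 medium; the read-out is not stated. Concentration: 500 µM. The record gives no direction; compounds that gave an IC50 in retests scored well above the rest, so higher reads as more growth inhibition. Size under these conditions: about 18,000 compounds, about 1,400 of them at 50% or above in at least one test.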

Each number is a percent effect as filed.
The record does not define 0% and 100%; most values in the screen are far below 50% and negative numbers occur (in some assays of this library far below -100).
The compounds are a random part of those screened.

| compound | Percent Effect |
|---|---|
| `Cn1ncnc1SCC(=O)N1CCCCC1` | -0.05566% |
| `CNC(=O)CCN1CCCSCC1` | 0.7551% |
| `COCCNC(=O)c1cn(-c2cccc(Br)c2)nn1` | 12.98% |
| `COc1cc(NC(=O)CNC(C)C)cc(OC)c1` | 25.31% |
| `CN1CCN(CCNC(=O)c2ccc(F)cc2)CC1` | -8.923% |
| `O=C(CCc1cc(Cl)no1)N1CC[C@H]2CNC[C@H]21` | -4.284% |
| `CCC1C(=O)NCCN1Cc1coc(C(C)C)n1` (stereo unspecified) | -15.8% |
| `CSc1ccccc1CN1CCN(CCC(N)=O)CC1` | 23.74% |
| `CCN(CCCNC(=O)c1cccnc1O)S(C)(=O)=O` | 13.32% |
| `COc1ccc2[nH]c(N3CCOCC3)nc2c1` | -3.839% |
| `COCCNC(=O)N(C)CCN1CCCC1=O` | -10.71% |
| `NCC(CO)c1cccc(Cl)c1` (stereo unspecified) | 24.65% |
| `COCCN1CCN(c2ccccc2C#N)CC1` | 25.2% |
| `COCCC1(CN2CCC(C(N)=O)C2)CCC1` (stereo unspecified) | -8.381% |
| `CC(=O)N1CCC[C@H]1C(=O)NCCc1csc(C)n1` | 55.92% |
| `COCCOc1ccc(CNC(=O)c2ccoc2)cn1` | 24.79% |
| `Cn1ncnc1NC(=O)c1ccc(C#N)cc1` | -1.222% |
| `CN1C(=O)c2ccc(S(N)(=O)=O)cc2C1=O` | -7.396% |
| `CCN1C[C@H](NC(=O)c2ccc(CSC)o2)[C@@H](OC)C1` | 28.41% |
| `NC(=O)N1CCCC(C(=O)Nc2cc(Br)ccc2F)C1` (stereo unspecified) | 47.24% |
| `CC1Cc2ccccc2N1S(C)(=O)=O` (stereo unspecified) | 32.82% |
| `CN(CC(=O)NC(N)=O)C1CCCC1` | 4.853% |
| `CCC(O)(CC(N)=O)c1ccccc1` (stereo unspecified) | 5.976% |
| `COCC(=O)Nc1cnc(-c2cccnc2)nc1` | 11.95% |
| `CS(=O)(=O)N1CCSc2ccncc21` | -1.421% |
| `CCn1cc(NC(=O)NC2CCN(C3CC3)CC2)cn1` | 3.284% |
| `CC(C)(C)OC(=O)NCCC1CCNCC1` | 12.61% |
| `COc1cccc(CNc2nc(C)no2)c1` | 58.31% |
| `Cc1nn(C)c(C)c1CCC(=O)NC1CCCNC1=O` (stereo unspecified) | 6.78% |
| `O=C1CCN(Cc2cc(Br)cc3c2OCC3)CCN1` | -6.452% |
| `COCCn1cnnc1CN(C)Cc1nccs1` | 4.631% |
| `CCn1cc(NC(=O)CN2CCC(C)CC2)ccc1=O` | -9.05% |
| `Cc1ccc(CNC2(C(N)=O)CC2)cc1` | 5.151% |
| `CC(NC(=O)Nc1ccccn1)C1CCN(C)CC1` (stereo unspecified) | -11.88% |
| `CCNC(=O)Cc1nc(-c2ccncc2)n[nH]1` | 3.614% |
| `COC(=O)CSc1nc2ncc(Br)cc2[nH]1` | 3.31% |
| `COc1ccc(CCC(=O)NCCNC(C)=O)cc1` | -8.714% |
| `Cc1ccc(NC(=O)NCC(=O)N(C)C)cc1` | 9.301% |
| `CCC(C(=O)NCc1ccc(F)c(F)c1)n1cccn1` (stereo unspecified) | 47.16% |
| `O=C(NC1CCOCC1)c1ccc(F)cc1` | 40.08% |
| `Clc1cncc(NCC2CN(C3CC3)CCO2)n1` (stereo unspecified) | 52.28% |
| `CCOC(=O)c1sc2ncn(CCC#N)c(=O)c2c1C` | 6.1% |
| `CNCC(=O)NCCc1c(OC)ccc2ccccc12` | 59.74% |
| `Cc1c(CN)cnn1CC(C)C` | 7.643% |
| `CCc1cnc(NCCN2CCC(O)CC2)nc1` | 6.085% |
| `CCOC(=O)c1cnn2cccnc12` | -13.96% |
| `O=C(CSc1nnc(NCc2ccco2)s1)NC1CC1` | 26.93% |
| `CCCC(=O)NC1CCN(C(=O)c2ccoc2)CC1` | 10.54% |
| `Cn1c(CO)cnc1S(=O)(=O)Cc1ccc(F)cc1` | -0.8459% |
| `O=C(CCNCc1cccnc1)NCc1ccccc1` | 10.96% |
| `COCCN1CCN(Cc2cccn2C)CC1=O` | 14.78% |
| `Cc1cc(C(=O)N[C@H]2CCCNC2)n(C)n1` | 12.4% |
| `N#CC1(C(=O)NCc2ccncc2)CCOCC1` | 1.963% |
| `O=C(CCCc1nccs1)NCC(=O)N1CCCCC1` | 9.929% |
| `CCOc1ccccc1OCCN` | 28.38% |
| `Cc1cc(F)cc(S(=O)(=O)NCCCN)c1` | 27.41% |
| `CN(C)C(=O)CCCS(=O)(=O)c1ccc(C#N)cc1Cl` | -0.2194% |
| `CC(C)(C)NC(=O)Cn1cnc2ncccc2c1=O` | -9.963% |
| `O=C(CN1CCCC(O)C1)NCCCc1ccccn1` (stereo unspecified) | 6.492% |
| `CCN(CC)CC(=O)NCCS(=O)(=O)C(C)(C)C` | 4.131% |
| `Cc1cc(Cl)cnc1C#N` | 17.13% |
| `CCN(C(=O)NC(C)C)C(C)CS(=O)(=O)CC` (stereo unspecified) | -4.29% |
| `COc1ccc2cc(S(N)(=O)=O)ccc2c1` | 23.31% |
| `C[C@@H]1CN(c2nc(CO)cs2)C[C@]1(C)O` | -16.38% |
| `O=C(CCc1ccccc1)N1CCCNCC1` | 58.21% |
| `CCOCCC1(C(=O)NC2=NCCS2)CCCC1` | 24.67% |
| `CCN(CC)CC(=O)Nc1c2c(nn1C)CCC2` | -9.826% |
| `CNC(=O)CCCNCc1c(C)nn(C)c1OC` | 4.769% |
| `NC(=O)NCC1CCCN(C(=O)NC2CCCCC2)C1` (stereo unspecified) | 4.771% |
| `Cc1csc(NC(=O)NCC2(O)CCN(C)CC2)n1` | 2.295% |
| `CC(C(N)=O)N(C)CC(=O)N(C)C1CCCCC1` (stereo unspecified) | 10.6% |
| `Cc1cc(CNC(=O)N[C@@H](C)C(=O)N(C)C)ccc1Cl` | -1.708% |
| `CCN1CCC(NCc2ccc3c(c2)OCO3)CC1` | -1.894% |
| `COc1ccc(S(=O)(=O)N2CC=C(C)CC2)cc1` | -15.36% |
| `O=C(NCC1(O)CCOC1)c1ccn(C2CCCC2)n1` (stereo unspecified) | 14.88% |
| `NC(=O)CCc1ccc(Cl)s1` | 49.45% |
| `Cc1cc(NC(=O)C(C)OC(=O)c2ccccn2)no1` (stereo unspecified) | 21.14% |
| `NC(=O)C1CCN(Cc2cnc3ccc(Br)cn23)CC1` | -12.73% |
| `CCN1CN=C(NS(=O)(=O)c2ccc(C)cc2)NC1` | -10.51% |
| `CC(N)C(=O)Nc1ccc(-n2nccn2)cc1` (stereo unspecified) | 36.62% |
| `CC(Cc1ccco1)NS(=O)(=O)N1CCOCC1` (stereo unspecified) | 13.13% |
| `Cc1ccc(-c2csc(N3CCS(=O)(=O)CC3)n2)s1` | -1.441% |
| `N#Cc1cccc(CSc2nnc(N)s2)c1` | 21.38% |
| `O=S(=O)(C1CCCNC1)N1CCc2ccccc21` (stereo unspecified) | 16.92% |
| `CCC(=O)NC1CCN(Cc2nnc(C)o2)CC1` | -1.211% |
| `Cc1ccc(CNc2ccc(N(C)C)nc2)o1` | -898.1% |
| `c1ccc(OCC2CNCCO2)cc1` (stereo unspecified) | 16.83% |
| `O=S(=O)(CCN1CCN(c2nccs2)CC1)C(F)(F)F` | -4.219% |
| `N#Cc1cccnc1NCc1ccc2c(c1)OCO2` | 38.4% |

The first 10 entries again:

compound	Percent Effect
Cn1ncnc1SCC(=O)N1CCCCC1	-0.05566%
CNC(=O)CCN1CCCSCC1	0.7551%
COCCNC(=O)c1cn(-c2cccc(Br)c2)nn1	12.98%
COc1cc(NC(=O)CNC(C)C)cc(OC)c1	25.31%
CN1CCN(CCNC(=O)c2ccc(F)cc2)CC1	-8.923%
O=C(CCc1cc(Cl)no1)N1CC[C@H]2CNC[C@H]21	-4.284%
CCC1C(=O)NCCN1Cc1coc(C(C)C)n1 (stereo unspecified)	-15.8%
CSc1ccccc1CN1CCN(CCC(N)=O)CC1	23.74%
CCN(CCCNC(=O)c1cccnc1O)S(C)(=O)=O	13.32%
COc1ccc2[nH]c(N3CCOCC3)nc2c1	-3.839%

Data taken from ChEMBL document CHEMBL3988442, “University of Dundee, Small-Polar-MMV Screening Library” (2021).